{"source": "PubChem BioAssay AID652272 (Drosophila RNAi Screening Center, 2013)", "aim": "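Genome-wide knock-down search for components of Hedgehog signalling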 (primary screen)", "cells": "Drosophila clone 8 (Cl8) cells", "reagent": "long dsRNA against Drosophila genes", "detection": "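Firefly light from a Hedgehog-responsive ptc promoter reporter and Renilla reference light, both read on a plate reader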", "direction": "firefly Hh reporter signal: higher = more ptc reporter light; Renilla reference signal: higher = more Renilla control light", "hit rule": "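Called a hit if the two-replicate mean z-score lies below -2 or above +3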", "calls": "active = hit: reporter lowered or raised; inactive = not a hit", "note": "The deposit covers about 21,000 reagents; below is a random part of those that have a named target and a result. Of all reagents, 503 (2.4%) were called active. 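Raw plate light values, not normalised; calls rest on replicate z-scores that were not deposited; hits include reporter decreases as well as increases.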 Reagents against one gene are numbered here. The record does not give: the amount of reagent, the time to read-out."}
The opening 2 entries, to show the layout:
{"target": "CG13540", "reagent no.": 1, "firefly Hh reporter signal, replicate 1": 75724, "firefly Hh reporter signal, replicate 2": 36660, "Renilla reference signal, replicate 1": 946, "Renilla reference signal, replicate 2": 3665, "outcome": "inactive"}
{"target": "CG15117", "reagent no.": 1, "firefly Hh reporter signal, replicate 1": 95681, "firefly Hh reporter signal, replicate 2": 63985, "Renilla reference signal, replicate 1": 4074, "Renilla reference signal, replicate 2": 2866, "outcome": "inactive"}

The list itself, repeating the preview:
{"target": "CG13540", "reagent no.": 1, "firefly Hh reporter signal, replicate 1": 75724, "firefly Hh reporter signal, replicate 2": 36660, "Renilla reference signal, replicate 1": 946, "Renilla reference signal, replicate 2": 3665, "outcome": "inactive"}
{"target": "CG15117", "reagent no.": 1, "firefly Hh reporter signal, replicate 1": 95681, "firefly Hh reporter signal, replicate 2": 63985, "Renilla reference signal, replicate 1": 4074, "Renilla reference signal, replicate 2": 2866, "outcome": "inactive"}
{"target": "Pif1A", "reagent no.": 1, "firefly Hh reporter signal, replicate 1": 1.74e5, "Renilla reference signal, replicate 1": 4455, "outcome": "inactive"}
{"target": "Pif1A", "reagent no.": 2, "firefly Hh reporter signal, replicate 1": 91192, "firefly Hh reporter signal, replicate 2": 1.07e5, "Renilla reference signal, replicate 1": 3577, "Renilla reference signal, replicate 2": 2891, "outcome": "inactive"}
{"target": "Est-Q", "reagent no.": 1, "firefly Hh reporter signal, replicate 1": 84091, "firefly Hh reporter signal, replicate 2": 1.05e5, "Renilla reference signal, replicate 1": 3129, "Renilla reference signal, replicate 2": 3524, "outcome": "inactive"}
{"target": "CG31816", "reagent no.": 1, "firefly Hh reporter signal, replicate 1": 1.15e5, "firefly Hh reporter signal, replicate 2": 2.70e5, "Renilla reference signal, replicate 1": 2976, "Renilla reference signal, replicate 2": 11489, "outcome": "inactive"}
{"target": "CG14054", "reagent no.": 1, "firefly Hh reporter signal, replicate 1": 1.07e5, "firefly Hh reporter signal, replicate 2": 2.81e5, "Renilla reference signal, replicate 1": 4432, "Renilla reference signal, replicate 2": 10480, "outcome": "inactive"}
{"target": "Or59a", "reagent no.": 1, "firefly Hh reporter signal, replicate 1": 80669, "firefly Hh reporter signal, replicate 2": 40487, "Renilla reference signal, replicate 1": 2358, "Renilla reference signal, replicate 2": 4045, "outcome": "inactive"}
{"target": "Mur29B", "reagent no.": 1, "firefly Hh reporter signal, replicate 1": 7.50e5, "firefly Hh reporter signal, replicate 2": 3.27e5, "Renilla reference signal, replicate 1": 38022, "Renilla reference signal, replicate 2": 13386, "outcome": "inactive"}
{"target": "Mur29B", "reagent no.": 2, "firefly Hh reporter signal, replicate 1": 1.65e5, "firefly Hh reporter signal, replicate 2": 94938, "Renilla reference signal, replicate 1": 4231, "Renilla reference signal, replicate 2": 7168, "outcome": "inactive"}
{"target": "CG11147", "reagent no.": 1, "firefly Hh reporter signal, replicate 1": 74244, "firefly Hh reporter signal, replicate 2": 38438, "Renilla reference signal, replicate 1": 2277, "Renilla reference signal, replicate 2": 4316, "outcome": "inactive"}
{"target": "Megf8", "reagent no.": 1, "firefly Hh reporter signal, replicate 1": 1.20e5, "firefly Hh reporter signal, replicate 2": 99920, "Renilla reference signal, replicate 1": 4313, "Renilla reference signal, replicate 2": 4016, "outcome": "inactive"}
